Laboratory results from paper PMC4432227.
These are yes or no findings as the source states them, for the method shown. Some binding calls cover weakened binding; strength is not graded here. Where a sequence is shown, tags or fusion partners need not be part of it. Values belong to the binder of their own block, whether it stands above or below them.

Amino acid sequences for entries named in this document (tags omitted).
UniProt Q9NVJ2: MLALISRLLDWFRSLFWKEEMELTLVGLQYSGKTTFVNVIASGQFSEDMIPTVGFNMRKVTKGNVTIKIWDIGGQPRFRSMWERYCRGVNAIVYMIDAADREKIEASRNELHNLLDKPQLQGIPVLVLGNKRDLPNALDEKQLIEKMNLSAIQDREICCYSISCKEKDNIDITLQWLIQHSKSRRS
UniProt P51149: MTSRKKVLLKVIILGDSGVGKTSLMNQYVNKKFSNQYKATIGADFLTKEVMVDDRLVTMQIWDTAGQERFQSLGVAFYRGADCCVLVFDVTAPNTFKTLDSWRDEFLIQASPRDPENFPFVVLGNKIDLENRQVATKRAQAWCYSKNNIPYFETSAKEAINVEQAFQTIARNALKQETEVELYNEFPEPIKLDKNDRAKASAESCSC

Key:
Experiment in all cases: two-hybrid; S. cerevisiae AH109 co-transformants (pGBKT7 and pGADT7), grown at 30°C, replated on non-selection (+HIS) and selection (−HIS) plates
[1] = molecular target: Arl8b (yeast two-hybrid fusion, Arl8b-pGBKT7) (UniProt Q9NVJ2)
[2] = molecular target: Rab7 (yeast two-hybrid fusion) (UniProt P51149)
[3] = molecular target: T1, SKIP (yeast two-hybrid fusion) (UniProt Q8IWE5)
T1 sequence: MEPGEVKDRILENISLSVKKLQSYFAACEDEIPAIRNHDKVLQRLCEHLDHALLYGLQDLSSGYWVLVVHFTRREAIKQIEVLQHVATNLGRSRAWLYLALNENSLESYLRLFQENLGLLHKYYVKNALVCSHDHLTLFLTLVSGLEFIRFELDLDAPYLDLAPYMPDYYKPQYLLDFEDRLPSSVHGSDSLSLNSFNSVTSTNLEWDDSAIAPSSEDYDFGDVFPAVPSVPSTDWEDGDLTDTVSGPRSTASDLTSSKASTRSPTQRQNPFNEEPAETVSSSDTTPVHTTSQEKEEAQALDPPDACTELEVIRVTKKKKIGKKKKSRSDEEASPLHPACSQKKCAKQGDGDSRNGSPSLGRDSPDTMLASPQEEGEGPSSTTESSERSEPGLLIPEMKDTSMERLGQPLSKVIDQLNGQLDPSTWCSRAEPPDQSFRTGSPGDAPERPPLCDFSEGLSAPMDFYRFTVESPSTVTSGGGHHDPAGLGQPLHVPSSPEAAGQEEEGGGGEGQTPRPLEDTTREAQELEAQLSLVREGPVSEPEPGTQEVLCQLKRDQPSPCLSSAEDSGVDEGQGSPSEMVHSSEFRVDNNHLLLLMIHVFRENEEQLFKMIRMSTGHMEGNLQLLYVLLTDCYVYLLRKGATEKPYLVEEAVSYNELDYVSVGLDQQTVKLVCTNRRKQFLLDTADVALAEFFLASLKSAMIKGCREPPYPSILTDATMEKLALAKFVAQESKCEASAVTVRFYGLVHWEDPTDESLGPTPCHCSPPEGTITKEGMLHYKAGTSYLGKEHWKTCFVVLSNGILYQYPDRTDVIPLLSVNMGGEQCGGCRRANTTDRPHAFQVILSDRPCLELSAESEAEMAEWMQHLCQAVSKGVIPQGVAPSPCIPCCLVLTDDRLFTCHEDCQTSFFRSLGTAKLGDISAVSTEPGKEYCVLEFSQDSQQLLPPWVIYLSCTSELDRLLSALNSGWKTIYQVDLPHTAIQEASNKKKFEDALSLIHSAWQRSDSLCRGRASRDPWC

[4] = molecular target: T2, hVps18 (yeast two-hybrid fusion) (human) (UniProt Q9P253)
T2 sequence: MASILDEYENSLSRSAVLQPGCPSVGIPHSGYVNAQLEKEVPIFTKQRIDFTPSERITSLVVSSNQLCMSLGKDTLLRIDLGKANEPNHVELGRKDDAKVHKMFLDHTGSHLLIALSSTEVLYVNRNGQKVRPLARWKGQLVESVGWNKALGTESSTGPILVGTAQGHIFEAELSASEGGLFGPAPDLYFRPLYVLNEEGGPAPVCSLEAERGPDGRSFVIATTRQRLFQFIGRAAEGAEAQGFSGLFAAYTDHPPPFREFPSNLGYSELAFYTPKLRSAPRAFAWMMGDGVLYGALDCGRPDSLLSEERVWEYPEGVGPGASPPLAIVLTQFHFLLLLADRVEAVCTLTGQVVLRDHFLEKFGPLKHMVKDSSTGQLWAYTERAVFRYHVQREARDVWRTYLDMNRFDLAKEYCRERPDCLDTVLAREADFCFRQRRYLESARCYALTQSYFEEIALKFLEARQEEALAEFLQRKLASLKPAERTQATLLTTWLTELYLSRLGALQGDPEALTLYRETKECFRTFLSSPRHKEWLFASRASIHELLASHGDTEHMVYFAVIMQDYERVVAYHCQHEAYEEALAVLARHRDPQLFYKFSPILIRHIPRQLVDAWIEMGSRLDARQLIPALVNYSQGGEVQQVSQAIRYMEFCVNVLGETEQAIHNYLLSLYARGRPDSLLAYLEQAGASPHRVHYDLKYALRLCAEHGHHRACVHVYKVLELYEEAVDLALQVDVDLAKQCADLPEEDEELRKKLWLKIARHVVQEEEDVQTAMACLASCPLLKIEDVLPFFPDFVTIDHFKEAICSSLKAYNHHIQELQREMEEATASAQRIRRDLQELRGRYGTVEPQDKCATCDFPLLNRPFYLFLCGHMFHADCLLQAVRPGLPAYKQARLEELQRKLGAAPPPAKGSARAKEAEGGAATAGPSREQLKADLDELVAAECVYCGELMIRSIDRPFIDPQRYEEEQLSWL

[5] = molecular target: T3, hVps39 (yeast two-hybrid fusion) (human) (UniProt Q96JC1)
T3 sequence: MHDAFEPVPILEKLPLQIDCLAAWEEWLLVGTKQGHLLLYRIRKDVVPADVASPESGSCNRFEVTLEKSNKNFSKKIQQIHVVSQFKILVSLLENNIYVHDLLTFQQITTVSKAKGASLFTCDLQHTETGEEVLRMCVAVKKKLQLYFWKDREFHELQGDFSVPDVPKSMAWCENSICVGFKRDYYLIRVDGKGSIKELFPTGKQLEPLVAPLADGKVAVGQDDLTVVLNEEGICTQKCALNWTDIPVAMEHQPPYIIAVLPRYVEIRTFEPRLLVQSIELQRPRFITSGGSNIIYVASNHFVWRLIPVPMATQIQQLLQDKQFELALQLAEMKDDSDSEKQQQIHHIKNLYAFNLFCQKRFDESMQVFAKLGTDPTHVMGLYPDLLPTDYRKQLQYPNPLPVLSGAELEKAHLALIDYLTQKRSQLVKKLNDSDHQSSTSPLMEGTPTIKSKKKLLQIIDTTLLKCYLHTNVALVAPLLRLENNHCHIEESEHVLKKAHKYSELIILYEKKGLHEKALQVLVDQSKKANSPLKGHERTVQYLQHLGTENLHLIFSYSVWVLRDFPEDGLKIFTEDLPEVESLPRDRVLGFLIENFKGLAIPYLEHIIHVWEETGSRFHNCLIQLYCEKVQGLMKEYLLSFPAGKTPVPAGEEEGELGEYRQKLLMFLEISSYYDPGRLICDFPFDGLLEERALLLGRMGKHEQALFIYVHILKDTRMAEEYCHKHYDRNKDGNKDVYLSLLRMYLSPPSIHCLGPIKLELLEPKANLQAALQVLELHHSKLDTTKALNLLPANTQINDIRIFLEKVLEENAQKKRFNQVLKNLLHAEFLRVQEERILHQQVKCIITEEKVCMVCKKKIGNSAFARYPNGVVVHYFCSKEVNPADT

[6] = molecular target: T4, hVps16 (yeast two-hybrid fusion) (human) (UniProt Q9H269)
T4 sequence: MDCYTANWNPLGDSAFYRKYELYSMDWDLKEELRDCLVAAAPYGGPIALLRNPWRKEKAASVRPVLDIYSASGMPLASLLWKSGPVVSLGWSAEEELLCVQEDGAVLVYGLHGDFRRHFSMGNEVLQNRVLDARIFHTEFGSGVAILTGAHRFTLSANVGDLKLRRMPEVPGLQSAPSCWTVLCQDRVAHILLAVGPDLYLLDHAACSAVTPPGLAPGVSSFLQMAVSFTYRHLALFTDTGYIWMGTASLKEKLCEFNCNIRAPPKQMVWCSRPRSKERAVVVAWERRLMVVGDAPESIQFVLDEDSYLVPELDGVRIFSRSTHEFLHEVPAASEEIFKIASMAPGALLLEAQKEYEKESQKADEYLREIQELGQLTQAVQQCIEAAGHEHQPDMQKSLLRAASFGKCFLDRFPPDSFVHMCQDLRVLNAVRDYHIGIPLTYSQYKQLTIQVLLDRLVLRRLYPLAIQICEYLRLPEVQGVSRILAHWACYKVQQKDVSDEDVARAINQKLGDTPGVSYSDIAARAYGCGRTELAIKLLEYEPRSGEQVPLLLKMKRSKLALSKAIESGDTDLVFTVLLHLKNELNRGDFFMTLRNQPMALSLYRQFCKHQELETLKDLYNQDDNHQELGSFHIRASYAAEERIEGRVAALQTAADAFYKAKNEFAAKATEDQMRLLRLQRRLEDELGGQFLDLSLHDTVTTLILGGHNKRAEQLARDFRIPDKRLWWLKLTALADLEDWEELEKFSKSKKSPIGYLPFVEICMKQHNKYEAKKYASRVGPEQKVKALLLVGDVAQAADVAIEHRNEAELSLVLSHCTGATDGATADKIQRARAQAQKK

binding [1]: no binding
binding [2]: no binding
binding [3]: no binding
binding [4]: binds
binding [5]: binds
B1: hVps11 (yeast two-hybrid fusion) (protein, UniProt Q9H270 1-941)
chain: MAAYLQWRRFVFFDKELVKEPLSNDGAAPGATPASGSAASKFLCLPPGITVCDSGRGSLVFGDMEGQIWFLPRSLQLTGFQAYKLRVTHLYQLKQHNILASVGEDEEGINPLVKIWNLEKRDGGNPLCTRIFPAIPGTEPTVVSCLTVHENLNFMAIGFTDGSVTLNKGDITRDRHSKTQILHKGNYPVTGLAFRQAGKTTHLFVVTTENVQSYIVSGKDYPRVELDTHGCGLRCSALSDPSQDLQFIVAGDECVYLYQPDERGPCFAFEGHKLIAHWFRGYLIIVSRDRKVSPKSEFTSRDSQSSDKQILNIYDLCNKFIAYSTVFEDVVDVLAEWGSLYVLTRDGRVHALQEKDTQTKLEMLFKKNLFEMAINLAKSQHLDSDGLAQIFMQYGDHLYSKGNHDGAVQQYIRTIGKLEPSYVIRKFLDAQRIHNLTAYLQTLHRQSLANADHTTLLLNCYTKLKDSSKLEEFIKKKSESEVHFDVETAIKVLRQAGYYSHALYLAENHAHHEWYLKIQLEDIKNYQEALRYIGKLPFEQAESNMKRYGKILMHHIPEQTTQLLKGLCTDYRPSLEGRSDREAPGCRANSEEFIPIFANNPRELKAFLEHMSEVQPDSPQGIYDTLLELRLQNWAHEKDPQVKEKLHAEAISLLKSGRFCDVFDKALVLCQMHDFQDGVLYLYEQGKLFQQIMHYHMQHEQYRQVISVCERHGEQDPSLWEQALSYFARKEEDCKEYVAAVLKHIENKNLMPPLLVVQTLAHNSTATLSVIRDYLVQKLQKQSQQIAQDELRVRRYREETTRIRQEIQELKASPKIFQKTKCSICNSALELPSVHFLCGHSFHQHCFESYSESDADCPTCLPENRKVMDMIRAQEQKRDLHDQFQHQLKCSNDSFSVIADYFGRGVFNKLTLLTDPPTARLTSSLEAGLQRDLLMHSRRGT

binding [1]: no binding
binding [2]: no binding
binding [3]: no binding
binding [6]: binds
B2: hVps33a (yeast two-hybrid fusion) (protein, UniProt Q96AX1 1-596)
chain: MAAHLSYGRVNLNVLREAVRRELREFLDKCAGSKAIVWDEYLTGPFGLIAQYSLLKEHEVEKMFTLKGNRLPAADVKNIIFFVRPRLELMDIIAENVLSEDRRGPTRDFHILFVPRRSLLCEQRLKDLGVLGSFIHREEYSLDLIPFDGDLLSMESEGAFKECYLEGDQTSLYHAAKGLMTLQALYGTIPQIFGKGECARQVANMMIRMKREFTGSQNSIFPVFDNLLLLDRNVDLLTPLATQLTYEGLIDEIYGIQNSYVKLPPEKFAPKKQGDGGKDLPTEAKKLQLNSAEELYAEIRDKNFNAVGSVLSKKAKIISAAFEERHNAKTVGEIKQFVSQLPHMQAARGSLANHTSIAELIKDVTTSEDFFDKLTVEQEFMSGIDTDKVNNYIEDCIAQKHSLIKVLRLVCLQSVCNSGLKQKVLDYYKREILQTYGYEHILTLHNLEKAGLLKPQTGGRNNYPTIRKTLRLWMDDVNEQNPTDISYVYSGYAPLSVRLAQLLSRPGWRSIEEVLRILPGPHFEERQPLPTGLQKKRQPGENRVTLIFFLGGVTFAEIAALRFLSQLEDGGTEYVIATTKLMNGTSWIEALMEKPF
